The list shows a part of the results.

Protein sequences, listed by entry. Tags and fused reporters are not part of them. Lines headed by an entry give the natural chain unless they say otherwise; changes in a name come on top.
UniProt Q96I36: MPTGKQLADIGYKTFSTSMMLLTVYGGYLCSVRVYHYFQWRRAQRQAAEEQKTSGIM
UniProt P61201: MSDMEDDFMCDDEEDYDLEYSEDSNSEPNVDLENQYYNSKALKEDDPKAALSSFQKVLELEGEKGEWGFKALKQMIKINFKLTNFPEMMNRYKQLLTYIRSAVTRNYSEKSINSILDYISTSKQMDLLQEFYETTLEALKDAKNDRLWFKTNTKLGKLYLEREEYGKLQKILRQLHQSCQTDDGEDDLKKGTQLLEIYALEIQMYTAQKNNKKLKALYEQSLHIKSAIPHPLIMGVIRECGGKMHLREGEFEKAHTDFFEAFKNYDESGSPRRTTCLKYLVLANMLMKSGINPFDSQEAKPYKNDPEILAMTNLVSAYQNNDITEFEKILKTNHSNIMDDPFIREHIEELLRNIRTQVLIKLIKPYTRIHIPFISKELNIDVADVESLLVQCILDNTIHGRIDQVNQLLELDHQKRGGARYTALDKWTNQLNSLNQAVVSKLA
UniProt Q86T23: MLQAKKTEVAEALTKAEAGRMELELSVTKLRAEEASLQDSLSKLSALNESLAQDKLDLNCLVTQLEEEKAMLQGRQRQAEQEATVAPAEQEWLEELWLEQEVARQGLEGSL
UniProt Q8IYK4: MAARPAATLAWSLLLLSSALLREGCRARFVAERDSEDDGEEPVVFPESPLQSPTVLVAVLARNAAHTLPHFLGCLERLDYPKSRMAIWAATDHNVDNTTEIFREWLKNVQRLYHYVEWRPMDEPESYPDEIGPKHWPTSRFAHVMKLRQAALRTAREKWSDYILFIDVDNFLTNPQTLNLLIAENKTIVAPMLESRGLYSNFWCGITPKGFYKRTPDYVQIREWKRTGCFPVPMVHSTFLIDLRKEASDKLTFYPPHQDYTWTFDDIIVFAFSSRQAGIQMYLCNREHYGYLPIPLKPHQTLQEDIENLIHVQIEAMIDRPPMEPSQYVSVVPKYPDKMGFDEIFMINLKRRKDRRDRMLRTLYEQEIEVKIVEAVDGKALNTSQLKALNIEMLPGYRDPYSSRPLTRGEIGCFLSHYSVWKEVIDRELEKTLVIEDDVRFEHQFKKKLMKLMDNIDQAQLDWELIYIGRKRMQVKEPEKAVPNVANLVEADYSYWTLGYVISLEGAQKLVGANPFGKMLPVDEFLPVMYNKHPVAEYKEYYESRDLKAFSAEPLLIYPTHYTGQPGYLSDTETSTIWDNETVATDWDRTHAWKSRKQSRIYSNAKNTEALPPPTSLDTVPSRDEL
UniProt Q9H0A8, whole entry, looked up: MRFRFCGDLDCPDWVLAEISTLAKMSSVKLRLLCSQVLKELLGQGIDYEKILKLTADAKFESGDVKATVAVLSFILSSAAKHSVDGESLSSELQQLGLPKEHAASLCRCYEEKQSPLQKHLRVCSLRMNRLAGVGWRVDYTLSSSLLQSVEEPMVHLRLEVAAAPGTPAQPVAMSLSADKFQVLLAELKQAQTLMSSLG
UniProt Q9UBW8: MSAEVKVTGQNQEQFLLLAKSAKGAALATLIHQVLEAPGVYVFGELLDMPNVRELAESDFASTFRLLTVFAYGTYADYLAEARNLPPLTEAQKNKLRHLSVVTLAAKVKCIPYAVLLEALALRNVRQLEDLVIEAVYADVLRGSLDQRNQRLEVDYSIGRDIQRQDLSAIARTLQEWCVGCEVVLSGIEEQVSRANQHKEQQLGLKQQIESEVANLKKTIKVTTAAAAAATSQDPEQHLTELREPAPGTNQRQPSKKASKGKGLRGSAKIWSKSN
UniProt Q96HD1: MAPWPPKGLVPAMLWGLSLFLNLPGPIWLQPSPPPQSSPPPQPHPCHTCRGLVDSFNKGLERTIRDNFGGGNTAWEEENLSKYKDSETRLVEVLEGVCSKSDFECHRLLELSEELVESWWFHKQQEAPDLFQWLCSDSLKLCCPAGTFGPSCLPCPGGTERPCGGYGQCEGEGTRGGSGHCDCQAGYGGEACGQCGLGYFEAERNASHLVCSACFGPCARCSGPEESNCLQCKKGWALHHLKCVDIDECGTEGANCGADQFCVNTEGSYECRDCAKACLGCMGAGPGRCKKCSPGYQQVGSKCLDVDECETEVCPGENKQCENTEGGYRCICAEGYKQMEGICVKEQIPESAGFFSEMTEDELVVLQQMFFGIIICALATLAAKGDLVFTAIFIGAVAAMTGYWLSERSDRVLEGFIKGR
UniProt P31327: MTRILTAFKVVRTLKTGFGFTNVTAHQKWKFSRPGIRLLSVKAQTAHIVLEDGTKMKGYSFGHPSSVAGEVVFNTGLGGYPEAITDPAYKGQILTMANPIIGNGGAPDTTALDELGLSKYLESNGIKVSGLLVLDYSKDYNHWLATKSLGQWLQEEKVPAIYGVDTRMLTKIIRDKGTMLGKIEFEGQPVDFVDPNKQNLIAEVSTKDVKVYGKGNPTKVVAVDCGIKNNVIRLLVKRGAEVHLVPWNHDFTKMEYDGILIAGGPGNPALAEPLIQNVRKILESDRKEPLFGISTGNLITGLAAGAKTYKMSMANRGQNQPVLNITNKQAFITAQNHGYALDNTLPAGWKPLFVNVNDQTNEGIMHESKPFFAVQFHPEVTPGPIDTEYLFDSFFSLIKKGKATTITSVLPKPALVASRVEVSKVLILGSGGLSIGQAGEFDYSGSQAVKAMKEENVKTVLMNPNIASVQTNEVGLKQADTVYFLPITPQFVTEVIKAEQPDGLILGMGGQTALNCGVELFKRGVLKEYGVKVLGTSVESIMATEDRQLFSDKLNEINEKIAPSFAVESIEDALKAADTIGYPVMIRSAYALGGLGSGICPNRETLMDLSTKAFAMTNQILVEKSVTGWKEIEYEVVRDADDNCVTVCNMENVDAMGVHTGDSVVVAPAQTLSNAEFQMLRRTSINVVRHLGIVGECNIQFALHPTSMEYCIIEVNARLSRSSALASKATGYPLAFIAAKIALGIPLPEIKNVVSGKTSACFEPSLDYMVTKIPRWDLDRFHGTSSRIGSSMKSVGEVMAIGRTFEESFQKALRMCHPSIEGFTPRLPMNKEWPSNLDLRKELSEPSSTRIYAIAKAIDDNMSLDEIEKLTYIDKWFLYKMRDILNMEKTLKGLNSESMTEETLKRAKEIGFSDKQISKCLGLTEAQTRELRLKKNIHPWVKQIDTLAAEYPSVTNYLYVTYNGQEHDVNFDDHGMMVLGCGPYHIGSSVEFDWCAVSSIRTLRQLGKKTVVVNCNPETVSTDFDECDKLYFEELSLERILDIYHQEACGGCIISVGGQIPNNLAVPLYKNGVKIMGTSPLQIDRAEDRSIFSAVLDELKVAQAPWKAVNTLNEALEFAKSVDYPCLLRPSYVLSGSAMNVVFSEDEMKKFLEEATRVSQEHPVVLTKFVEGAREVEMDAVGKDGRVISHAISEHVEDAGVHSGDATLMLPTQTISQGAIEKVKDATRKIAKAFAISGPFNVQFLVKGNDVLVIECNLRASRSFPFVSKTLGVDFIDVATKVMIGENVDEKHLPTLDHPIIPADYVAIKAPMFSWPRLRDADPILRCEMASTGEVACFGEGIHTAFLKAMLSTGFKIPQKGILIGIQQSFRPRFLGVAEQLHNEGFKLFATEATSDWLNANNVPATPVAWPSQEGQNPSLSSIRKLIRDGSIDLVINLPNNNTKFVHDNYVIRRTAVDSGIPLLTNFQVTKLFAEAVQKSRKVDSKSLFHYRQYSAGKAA
UniProt P36551: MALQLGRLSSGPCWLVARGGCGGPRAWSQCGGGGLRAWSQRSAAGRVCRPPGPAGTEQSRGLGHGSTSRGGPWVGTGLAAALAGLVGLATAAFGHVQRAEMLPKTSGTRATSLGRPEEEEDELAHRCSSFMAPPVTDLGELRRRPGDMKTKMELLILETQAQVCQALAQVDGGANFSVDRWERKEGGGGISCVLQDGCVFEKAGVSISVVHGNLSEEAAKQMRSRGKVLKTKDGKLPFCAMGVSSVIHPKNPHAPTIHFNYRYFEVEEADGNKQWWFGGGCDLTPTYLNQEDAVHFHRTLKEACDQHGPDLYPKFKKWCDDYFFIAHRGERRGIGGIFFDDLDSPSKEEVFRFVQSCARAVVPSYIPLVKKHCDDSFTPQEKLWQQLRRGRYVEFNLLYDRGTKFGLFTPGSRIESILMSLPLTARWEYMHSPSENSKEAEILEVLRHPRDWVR
UniProt Q17RY0: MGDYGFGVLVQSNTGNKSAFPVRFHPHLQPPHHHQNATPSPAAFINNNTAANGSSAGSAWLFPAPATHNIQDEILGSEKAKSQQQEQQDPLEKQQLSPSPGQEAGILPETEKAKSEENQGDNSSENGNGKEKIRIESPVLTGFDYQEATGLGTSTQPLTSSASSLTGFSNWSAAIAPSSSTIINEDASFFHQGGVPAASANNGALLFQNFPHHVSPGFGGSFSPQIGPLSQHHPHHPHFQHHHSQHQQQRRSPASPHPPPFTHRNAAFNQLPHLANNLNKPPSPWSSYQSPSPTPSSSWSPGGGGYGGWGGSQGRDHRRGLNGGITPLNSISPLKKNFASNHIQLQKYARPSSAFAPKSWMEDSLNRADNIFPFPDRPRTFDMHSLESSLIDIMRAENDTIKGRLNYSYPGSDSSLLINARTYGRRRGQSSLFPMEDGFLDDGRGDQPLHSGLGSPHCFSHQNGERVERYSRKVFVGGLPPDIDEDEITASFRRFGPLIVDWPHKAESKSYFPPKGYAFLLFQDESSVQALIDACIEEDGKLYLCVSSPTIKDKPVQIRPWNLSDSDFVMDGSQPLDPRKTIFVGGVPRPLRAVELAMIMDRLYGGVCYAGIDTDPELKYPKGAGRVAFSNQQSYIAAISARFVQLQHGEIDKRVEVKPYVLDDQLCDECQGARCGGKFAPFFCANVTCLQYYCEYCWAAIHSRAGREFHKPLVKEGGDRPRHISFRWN
UniProt Q86VX2, whole entry, looked up: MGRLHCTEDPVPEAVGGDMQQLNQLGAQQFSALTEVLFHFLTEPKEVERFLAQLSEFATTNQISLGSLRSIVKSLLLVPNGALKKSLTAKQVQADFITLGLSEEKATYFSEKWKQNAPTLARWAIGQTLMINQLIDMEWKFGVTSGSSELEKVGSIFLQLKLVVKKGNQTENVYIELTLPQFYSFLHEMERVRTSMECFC
UniProt Q8N8Q8: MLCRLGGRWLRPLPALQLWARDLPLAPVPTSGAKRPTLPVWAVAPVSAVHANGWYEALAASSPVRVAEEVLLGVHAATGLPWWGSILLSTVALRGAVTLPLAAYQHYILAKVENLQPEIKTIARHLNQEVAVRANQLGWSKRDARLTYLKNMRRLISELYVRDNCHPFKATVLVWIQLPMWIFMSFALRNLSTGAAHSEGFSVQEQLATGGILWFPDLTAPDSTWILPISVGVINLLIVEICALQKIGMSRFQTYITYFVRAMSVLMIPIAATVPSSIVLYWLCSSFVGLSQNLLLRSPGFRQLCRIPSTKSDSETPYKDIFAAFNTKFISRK
UniProt P35606: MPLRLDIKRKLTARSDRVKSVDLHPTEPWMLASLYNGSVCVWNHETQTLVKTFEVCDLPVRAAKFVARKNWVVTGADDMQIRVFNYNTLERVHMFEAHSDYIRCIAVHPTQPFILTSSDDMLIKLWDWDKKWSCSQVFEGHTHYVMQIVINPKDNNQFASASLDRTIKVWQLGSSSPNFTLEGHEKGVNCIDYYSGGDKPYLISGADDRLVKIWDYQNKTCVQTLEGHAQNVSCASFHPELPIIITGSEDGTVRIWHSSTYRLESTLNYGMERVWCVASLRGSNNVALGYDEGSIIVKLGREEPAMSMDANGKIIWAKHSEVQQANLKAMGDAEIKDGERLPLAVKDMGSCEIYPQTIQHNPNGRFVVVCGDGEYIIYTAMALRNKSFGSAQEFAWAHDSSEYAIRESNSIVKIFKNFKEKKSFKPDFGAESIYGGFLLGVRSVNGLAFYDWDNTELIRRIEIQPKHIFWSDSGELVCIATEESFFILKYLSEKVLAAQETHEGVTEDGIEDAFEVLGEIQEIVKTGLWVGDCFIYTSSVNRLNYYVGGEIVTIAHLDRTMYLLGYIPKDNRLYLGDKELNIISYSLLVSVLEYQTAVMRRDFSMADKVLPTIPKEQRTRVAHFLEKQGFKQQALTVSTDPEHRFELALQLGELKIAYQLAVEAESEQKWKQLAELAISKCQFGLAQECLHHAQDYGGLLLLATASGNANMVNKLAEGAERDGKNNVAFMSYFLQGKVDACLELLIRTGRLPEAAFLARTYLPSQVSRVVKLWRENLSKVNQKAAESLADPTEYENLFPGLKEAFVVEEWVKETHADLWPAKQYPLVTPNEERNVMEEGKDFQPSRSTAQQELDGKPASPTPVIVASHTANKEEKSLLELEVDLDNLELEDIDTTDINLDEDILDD
UniProt O14579: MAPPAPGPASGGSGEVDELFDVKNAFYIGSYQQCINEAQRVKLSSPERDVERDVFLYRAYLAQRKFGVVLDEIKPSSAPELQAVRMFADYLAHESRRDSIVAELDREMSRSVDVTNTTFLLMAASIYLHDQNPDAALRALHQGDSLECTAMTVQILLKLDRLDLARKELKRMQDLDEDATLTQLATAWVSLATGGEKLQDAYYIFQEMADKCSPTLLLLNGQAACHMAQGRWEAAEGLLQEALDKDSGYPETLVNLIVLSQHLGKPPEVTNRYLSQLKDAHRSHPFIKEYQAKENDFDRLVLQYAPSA

Compound in this experiment: c1cn2cc(-c3ccc4cn[nH]c4c3)nc(Nc3ccc(N4CCOCC4)cc3)c2n1 [entospletinib]
In words: log2 fold change, soluble protein after heating vs DMSO (PISA); higher = thermal stabilisation; K562 cells, 10 uM, 30 min; active = over 0.2 and 3.5 SD of the protein, either way, in both replicates (recomputed). In outline: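 Aliquots of K562 cells (2×10^6 cells/mL) treated with 10 μM compound for 30 min were heated for 3 min over 48°C-58°C. After pooling and extraction in PBS with 0.5% NP-40 at 4°C, soluble protein from a 21,000xg, 90 min spin was quantified by TMTpro 16plex LC-MS/MS with channel sums equalised. Thermal stability is expressed against control samples, from duplicates, as a log2 fold change.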

For COX14 (UniProt Q96I36), the log2 fold change was inactive: 0.042.

For the target COPS2 (UniProt P61201), the log2 fold change was inactive: -0.014.

In the case of CPNE2 (UniProt Q96FN4), the log2 fold change is inactive: -0.288.

For the target CROCCP2 (UniProt Q86T23), the log2 fold change is inactive: 0.007.

In the case of COX7A2 (UniProt P14406), the log2 fold change is inactive: 0.049.

In the case of COLGALT2 (UniProt Q8IYK4), the log2 fold change is inactive: 0.016.

On to CSNK1G1 (UniProt Q9HCP0), for which the log2 fold change is inactive: 0.134.

Regarding CPNE7 (UniProt Q9UBL6), the log2 fold change is inactive: -0.144.

As for CSDE1 isoform 4 (UniProt O75534), the log2 fold change was inactive: 0.172.

For CPNE3 (UniProt O75131), the log2 fold change is inactive: 0.

As for COMMD4 (UniProt Q9H0A8), the log2 fold change was inactive: -0.103.

As for COPS7A (UniProt Q9UBW8), the log2 fold change was inactive: 0.025.

For the target CRELD1 isoform 2 (UniProt Q96HD1), the log2 fold change is inactive: 0.033.

CRYZ (UniProt Q08257): the log2 fold change was inactive: 0.011.

CPS1 isoform 3 (UniProt P31327): the log2 fold change was inactive: 0.115.

On to CPOX (UniProt P36551), for which the log2 fold change was inactive: 0.045.

On to COPZ1 isoform 4 (UniProt P61923), for which the log2 fold change was inactive: 0.016.

Take CPSF2 (UniProt Q9P2I0): the log2 fold change was inactive: -0.052.

For COMP (UniProt P49747), the log2 fold change is inactive: 0.292.

Take CPEB4 (UniProt Q17RY0): the log2 fold change is inactive: -0.04.

In the case of COMMD7 (UniProt Q86VX2), the log2 fold change was inactive: 0.022.

With COL6A1 (UniProt P12109), the log2 fold change was inactive: 0.197.

In the case of CSNK1A1L (UniProt Q8N752), the log2 fold change is inactive: -0.014.

As to COLGALT1 (UniProt Q8NBJ5), the log2 fold change was inactive: 0.002.

As to COX18 (UniProt Q8N8Q8), the log2 fold change was inactive: 0.036.

Turning to COPB2 (UniProt P35606), the log2 fold change was inactive: 0.007.

For COPE (UniProt O14579), the log2 fold change is inactive: 0.014.

For the origin of these results see the supplement of paper PMC10849652.
